Laboratory results: publication PMC6010280
These are yes or no findings as the source states them, for the method shown. Binding seen in cells or lysates may run through a third protein. These calls come from enrichment with a bait or labelling near it, and not all partners need be listed.

B1: P2X purinoceptor 4 (protein, UniProt P51577 1-388)
chain: MAGCCSVLGSFLFEYDTPRIVLIRSRKVGLMNRAVQLLILAYVIGWVFVWEKGYQETDSVVSSVTTKAKGVAVTNTSQLGFRIWDVADYVIPAQEENSLFIMTNMIVTVNQTQSTCPEIPDKTSICNSDADCTPGSVDTHSSGVATGRCVPFNESVKTCEVAAWCPVENDVGVPTPAFLKAAENFTLLVKNNIWYPKFNFSKRNILPNITTSYLKSCIYNAQTDPFCPIFRLGTIVEDAGHSFQEMAVEGGIMGIQIKWDCNLDRAASLCLPRYSFRRLDTRDLEHNVSPGYNFRFAKYYRDLAGKEQRTLTKAYGIRFDIIVFGKAGKFDIIPTMINVGSGLALLGVATVLCDVIVLYCMKKKYYYRDKKYKYVEDYEQGLSGEMNQ
B2: Prostacyclin synthase (protein, UniProt Q62969 1-501)
chain: MSWAALLGLLAVLLLLLLLLSRRRARRPGEPPLDLGSIPWLGHALEFGKDAASFLTRMKEKHGDIFTVLVGGRYVTVLLDPHSYDTVVWDLRTRLDFHPYAIFLMERIFDLQLPNFNPSEEKARMKPTLMHKDLQALTEAMYTNLRTVLLGDSTEGGSGWQEKGLLEFSYSSLLSAGYLTLYGVEASPRTHESQALDRDHSADVFRTFRQLDLMLPKLARGSLSVGDKDHACSVKSRLWKLLSPAGLASRADRSSWLESYLRHLEEMGVSEDMQARALVLQLWATQGNMGPTAFWLLLFLLKNPEALDAVHAELKRIVWQAEKPVLQMTALPQKILDSMPVLDSVLNETLRLTAAPFITREVMADLALPMADRREFSLRRGDRLLLFPFLSPQKDPEIYTEPEVFKYNRFLNPDGSEKKDFYKDGKRLKNYNMPWGAGHNQCLGKSYAINSIKQFVVLLLTHFDLELVSEDTEVPEFDLSRYGFGLMQPEEDVPIRYRTRL
B3: Uncharacterized protein C8orf76 homolog (protein, UniProt Q5BK24 1-374)
chain: METGCWVLGGEFEDSVFEQKPERQPEPPSSYGAKLCEPQWFYEETESSNDIEVLTLKKFRGDLAYRRQEYEKALQEYSSISKQLPSTNFAMKRDVQEGQARCLAHLGRHEEALEIAVDLESKATNTEHLTSALSLHLAIFSRRQSLEKTILYLQKLISLHPLNPWSWCKLAEAYLSPGPDLPALGESPQGQKSSASSDKAVRASSVHSGTGCLPFPAPSPDSAVFSVEASGCDTQQDMQNCLAARRAAAQTEAQRKACAALIRARLLLQLAQSQQTSFALEKNLRTQQEIAQKVKEFSFREDTLLLMEEAMGEDIVPERIKEELHPEVQCVGPAALTASVAASSKEFEDKWFRKVRDHFSPLEKQSHVDIQIMA
B4: Usher syndrome type-1C protein-binding protein 1 (protein, UniProt Q3T1I3 1-680)
chain: MSARATRPRSRRGRHPLPGELDPVAESSEEVDTTNGSFETKPELLQEHLGPSLQGPGNRIKEDCDVGSHGVLPLSPEERREPEVEAHQALQEAPLDTGPAEITAPNVYETLKCRLSSLEAVVAAWRRHSLSFSKPVEAEDRDPGAPGSFGNEEEASGPGQQEAAHFIERNAWLRLALGTREEELARTQASLQDAQAENETLQRQVQELEDSLMQLEASPPPSMLRAGRRNSNSSSSGAERRPWAPQDSPMAHPFLQRLRSDSSTQSFGCLSTQRPSPEMYLMEDQMGQLQGNIEKLKCFNRLLLAVLQGYKGRCESLSIKLGKREAEATALHLALQYSKDCEEVYEVLLALKTAGLGAGVGATNGDLQAAEKEASRLLVKKEVAMDVKTPQPSPEGSSVDKPTPEELAAQLHGYVQHLRERWALLKIPPVLDPATAPKPTMPHAEATVQTILEIQPGPTLPQLEKSQIQQDLAATRDGLADLVLRLQLAQREKRGLELREAALRAQGPALRLLLQQLRWEQAHLMGDGSSGGSSEDPSSEEEAGEDRQQHYQGPPALLGGQMGKVWDSETVSQELSASLTRAVDLRAQLQSLRRQLEQMAQKGRTRGAQSAELNRELCKAHSALALAFREAHRKQEEQCRKLEQQMARMQAQQAEELAVLTATARALGDPGAPQPVQTFL
B5: Arginine and glutamate-rich protein 1 (protein, UniProt Q5BJT0 1-271)
chain: MGRSRSRSSSRSKHTKSSKHNKKRSRSRSRSRDKERVRKRSKSRESKRNRRRESRSRSRSTNAAASRRERERASSPPDRIDIFGRTVSKRSSLDEKQKREEEEKKAEFERQRKIRQQEIEEKLIEEETARRVEELVAKRVEEELEKRKDEIEREVLRRVEEAKRIMEKQLLEELERQRQAELAAQKAREEEERAKREELERILEENNRKIAEAQAKLAEEQLRIVEEQRKIHEERMKLEQERQRQQKEEQKIILGKGKSRPKLSFSLKTQD
B6: Hsp90 co-chaperone Cdc37-like 1 (protein, UniProt Q5XIC3 1-335)
chain: MEQPWPPPGPWSFPRTGGETEEESDLDVSPSSSHYSPVPDGGAQMYSHGIELACQRQKEFVKSSVACKWNLAEAQQKLGSLALHNSESLDQEHAKAQTAVSELRQREEEWRQKEEALVQRERTCLWNVDAISKDVFNKSFINQDKRKTEDEDKSQSFMQKYEQKIRHFGMLSRWDDSQRFLSDHPYLVCEETAKYLILWCFHLEAEQKGALMEQIAHQAVVMQFIMEMAKNCNVDPRGCFRLFFQKAKAEEEGYFEAFKNELEAFKARVRLYAQSQSFAPVTVENHAPHSGVGCIGSAEPLPQNPDSLQCCPPAPLCSVDSVVHKEDDDRMMDTV
B7: Serine/threonine-protein kinase DCLK1 (protein, UniProt O08875 1-433)
chain: MLELIEVNGTPGSQLSTPRSGKSPSPSPTSPGSLRKQRISQHGGSSTSLSSTKVCSSMDENDGPGEEESDEGFQIPATITERYKVGRTIGDGNFAVVKECIERSTAREYALKIIKKSKCRGKEHMIQNEVSILRRVKHPNIVLLIEEMDVPTELYLVMELVKGGDLFDAITSTSKYTERDASGMLYNLASAIKYLHSLNIVHRDIKPENLLVYEHQDGSKSLKLGDFGLATIVDGPLYTVCGTPTYVAPEIIAETGYGLKVDIWAAGVITYILLCGFPPFRGSGDDQEVLFDQILMGQVDFPSPYWDNVSDSAKELINMMLLVNVDQRFSAVQVLEHPWVNDDGLPENEHQLSVAGKIKKHFNTGPKPSSTAAGVSVIATTALDKERQVFRRRRNQDVRGRYKAQPAPPELNSESEDYSPSSSETVRSPNSPF
B8: Ephrin-B1 (entry P52796) (protein, UniProt P52796 25-345)
chain: ATPLAKNLEPVSWSSLNPKFLSGKGLVIYPKIGDKLDIICPRAEAGRPYEYYKLYLVRPEQAAACSTVLDPNVLVTCNKPQQEIRFTIKFQEFSPNYMGLEFKKYHDYYITSTSNGSLEGLENREGGVCRTRTMKIVMKVGQDPNAVTPEQLTTSRPSKESDNTVKTATQAPGRGSQGDSDGKHETVNQQEKSGPGAGGSGSGDTDSFFNSKVALFAAVGAGCVIFLLIIIFLTVLLLKLRKRHRKHTQQRAAALSLSTLASPKGDSGTAGTEPSDIIIPLRTTENNYCPHYEKVSGDYGHPVYIVQEMPPQSPANIYYKV
B9: Cdc42-interacting protein 4 (protein, UniProt P97531 1-547)
chain: MDWGTELWDQFEVLERHTQWGLDLLDKYVKFVKERVEVEQSYAKQLRSLVKKYLPKRPAKDDPEIKFSQQQSFVQLLQEVNDFAGQRELVAESLGIRVCLELAKYSQEMKQERKMHFQEGRRAQQQLENGFKQLENSKRKFERDCREAEKAAHTAERLDQDINATKADVEKAKQQAHLRNHMAEESKNEYAAQLQRFNRDQAHFYFSQMPQIFDKLQDMDERRATRLGAGYGLLSEAELQVVPIIGKCLEGMKVAAESVDAKNDSKVLIELHKSGFARPGDLEFEDFSQVMNRVPSDSSLGTPDGRPELRAASSRSRAKRWPFGKKNKTVVTEDFSHLPPEQQRKRLQQQLEERNRELQKEEDQREALKKMKDVYEKTPQMGDPASLEPRIAETLGNIERLKLEVQKYEAWLAEAESRVLSNRGDSLSRHTRPPDPPTTAPPDSSSSSNNSGSQDNKESSEEPPSEEGQDTPIYTEFDEDFEEPASPIGQCVAIYHFEGSSEGTVSMSEGEDLSLMEEDKGDGWTRVRRKQGGEGYVPTSYLRVTLN
B10: Connector enhancer of kinase suppressor of ras 3 (protein, UniProt Q5SGD7 1-555)
chain: MEPVTKWSPKQVVDWTRGLDDCLQPYVHKFEREKIDGEQLLKISHQDLEELGVTRIGHQELVLEAVDLLCALNYGLETDNMKNLVLKLRASSHNLQNYISSRRKSPAYDGNTSRKPPNEFLTSVVELIGAAKALLAWLDRAPFTGITDLSVTKNKIIQLCLDLTTAVQKDCLVAEMEDKVLNVVKVLNGICDKMMHSTTDPVMSQCACLEEVHLPNVRPGEGLGMYIKSTYDGLHVITGTTENSPADRSQKIHAGDEVIQVNRQTVVGWQLKNLVKKLRENPTGVVLLLKKRPTGSFSFTPAPLKNLRWKPPLVQTSPPPTTTQSPESTMDASLKKEKPAILDLYIPPPPAVPYSPRDENVSFSYRGHTKSKQPLPGRKGSESPNSFLDQESQRRRFTITDSDQLPGYSVGTNILPIKMRGKTPSYGKPRPLSMPADGNWMGIVDPFAKPRGHGRKGEDALCRYFSNERITPIIEESASPVYRFSRPLTERHLVRGADYIRGSRCYINSDLHSSATIPFQEEGPKKKSASSSAKASSGEPSLLVSWLTRLKLLTH
B11: RGD1562161 protein (protein, UniProt B2GUW9 1-744)
chain: MARSRSRSPRWKQRSLSPQSRNFEYHEERHFHGHYDPEYRNDPQRPFTWRMDDEKHGQNKPRIPPRVNSYYRSYENRSPSPNVKPVEKFDTYKPHQEYFPGRGDDDRRSQYMPTYTENAAAYMEHERDCYIPTVQGRYTDEHRGRGNGRGGKPPQMLLGMPPQMSLADSFRFKETWHEDELRHQRVPEESFPQSPRRGSEDFDTRNPFQKRYPEDHDFRKYGYISKRPTDAARYENREPARNPKWKPEHSFLPFQEKAEDWSFGTQSYRYTEREYPERSAATRVSYDYRHKHHKLSDGEQDFADGRFQKYLKEEDRKYSSLKIPGNRESDCFSTIRGRETENEQINGPFYLYQKDCVSYTHTNIKETDLASCNDKWKKKTNKEDCRKENASSSKQLDTGPKPEDKCYSLTKKKSLTIKVDRNKMDTFRSTRYSAERQTSHDLVAIGSRNDNFHPVFQHLDSTQNPEDKPTEEFAQEIITIIHKVKADSFVTPEITLHERFSRIKNKMYADFNQMQSNSDPEFHRRIDMSLADLQNKYTMVYEPDKTVVKVIEPNDLRHDIERRRKERLQNEDENIFHMASSTERIHQSSSFPKVKTIRADGFQKPPHFIKSNFRKFIQKPYINYTMQRKDAITQKIFRIEENHQNRRGSKGPFKNFLGGRFQPNYKSHLVQKSLYIQAKYQRLRFAGPRGFITNKFRNRFLRKKKEYPILPRTNHLELLQMESTLYEDLTEHLILSGIGLTLRH

Target: T1, intein-BHMT (betaine homocysteine S-methyltransferase) (R. norvegicus) (UniProt O09171)
T1 sequence: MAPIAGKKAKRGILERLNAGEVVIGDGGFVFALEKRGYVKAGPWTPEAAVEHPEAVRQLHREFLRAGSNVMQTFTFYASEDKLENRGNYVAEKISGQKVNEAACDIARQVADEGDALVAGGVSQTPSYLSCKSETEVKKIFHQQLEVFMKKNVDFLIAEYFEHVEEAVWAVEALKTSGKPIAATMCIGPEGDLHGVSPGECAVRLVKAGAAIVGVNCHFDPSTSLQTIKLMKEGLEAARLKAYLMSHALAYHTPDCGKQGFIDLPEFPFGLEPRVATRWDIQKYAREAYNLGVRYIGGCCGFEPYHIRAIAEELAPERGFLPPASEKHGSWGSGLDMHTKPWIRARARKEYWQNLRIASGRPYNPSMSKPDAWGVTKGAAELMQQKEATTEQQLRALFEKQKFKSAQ
Test: affinity purification with mass spectrometry; same intein-BHMT chitin column after the salt gradient; proteins recovered together with BHMT upon intein excision with 30 mM 2-mercaptoethanol, 48 h at 23°C (strong interactors); LC-MS/MS; only the target purified

Row | Binder | binding
1 | B1 | binds
2 | B2 | binds
3 | B3 | binds
4 | B4 | binds
5 | B5 | binds
6 | B6 | binds
7 | B7 | binds
8 | B8 | binds
9 | B9 | binds
10 | B10 | binds
11 | B11 | binds
